Measurements reported in doi:10.1101/2024.05.10.593605.
No constants are given. Whether binding was seen depends on the method and setting. Binding seen in cells or lysates may run through a third protein. A yes stands for co-enrichment or nearness to the bait. Other partners may have been found.

Chains of the proteins cited; added tags and fusions are not shown.
UniProt P49657: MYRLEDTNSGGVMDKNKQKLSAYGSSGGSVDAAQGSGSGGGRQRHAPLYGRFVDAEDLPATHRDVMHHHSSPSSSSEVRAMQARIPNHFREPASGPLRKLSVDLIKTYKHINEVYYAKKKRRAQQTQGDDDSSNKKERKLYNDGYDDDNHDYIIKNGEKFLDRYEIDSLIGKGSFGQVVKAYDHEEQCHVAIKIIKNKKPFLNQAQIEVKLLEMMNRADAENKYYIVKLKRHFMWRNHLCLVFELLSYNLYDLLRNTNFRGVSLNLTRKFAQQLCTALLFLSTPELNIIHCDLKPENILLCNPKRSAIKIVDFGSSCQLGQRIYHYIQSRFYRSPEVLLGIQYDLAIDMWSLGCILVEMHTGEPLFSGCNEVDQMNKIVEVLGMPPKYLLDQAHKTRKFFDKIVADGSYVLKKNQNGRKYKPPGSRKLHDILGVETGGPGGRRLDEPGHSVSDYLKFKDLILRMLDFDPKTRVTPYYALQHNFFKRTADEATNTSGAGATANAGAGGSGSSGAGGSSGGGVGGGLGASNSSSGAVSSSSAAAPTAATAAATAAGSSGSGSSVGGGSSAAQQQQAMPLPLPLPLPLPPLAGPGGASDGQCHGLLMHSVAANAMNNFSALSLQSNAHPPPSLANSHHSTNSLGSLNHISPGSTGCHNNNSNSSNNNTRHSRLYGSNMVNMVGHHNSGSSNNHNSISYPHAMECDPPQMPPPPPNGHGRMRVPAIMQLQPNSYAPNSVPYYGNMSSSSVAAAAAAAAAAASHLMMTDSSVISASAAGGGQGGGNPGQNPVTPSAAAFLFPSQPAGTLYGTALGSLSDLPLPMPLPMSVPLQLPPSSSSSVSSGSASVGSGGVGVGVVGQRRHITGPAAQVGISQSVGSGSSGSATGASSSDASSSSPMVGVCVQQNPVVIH

Target: Minibrain (Mnb), endogenously tagged Mnb-tRFP (Drosophila melanogaster (endogenous in embryos)) (UniProt P49657)
Test: affinity purification with mass spectrometry

B1: Ral interacting protein (Rlip), endogenous (protein, UniProt Q9VDG2 1-625)
chain: MDFDSPEEKEFPGLYASEAADAKSRKSKEESDFSEDHDHSKKDLLIGRRKDKKEKGKDRGYAALEGESSPEEELDTKSPSKSKKSKTFKFTSSKSKEKREKSRDKSEKDSKHAEEEPSVSHKVKEKERDKEKDRDEPKKKDKEEKRKEKDKKADKKDKKDKKSKQLSQQQDDVSAAEEVLALGYPVFGVSVSLATERSRCHDGVDIPLVVRDCIDFLQDHLKCEQIYKIEPIKTRLMHFKRLYNNREHDSAVDELNLPTACSLLKLFLRELPEPLLTTDLVARFEEVASHPKVTTQQAELQQLLEQLPKCNRTLLAWVLLHFDAVIQQERHNKLNAQSLAMLLSPTLQMSHRLMVALLCHCNNLFADVQLIKYVPPLTSTSPKLPDTPEDIQTELRKQDSLLSQIHSEMNAGFITKKREEQLWEVQRIITQLKRKLRTFEKKQEKTAEEVDNSSSAPPAVASEDTTDSKPAGTPAVSTNNSISQEEPKTDTLTPKDAPNDFTIDPSTGFILLPKSNPHRENLLRLQIEYDELMEWQNELKARIVAERNEVYRLKQLYEQQSINSQMASLASGSQAPPESDYERIIEHYTRENALLEHKKNMLGMELKEERRACIALQVELRLQQF
Q: With B1 as the binder, how does the binding read?
A: binds
